Taken from: PubChem BioAssay AID686937 (Drosophila RNAi Screening Center, 2013)
In all, the deposit lists about 23,000 reagents; this is an unselected part of those that have a named target and a result. 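Reduced-secretion tags in replicate 1 do not always agree with the z-scores; no criterion for assigning the tags was given.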 A plus sign joins genes that one reagent is predicted to hit. No sequences are given here. Not given: the amount of reagent.

Test: 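Genes in the fly needed for secretion of protein constitutively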 (primary screen)
Cell system: Drosophila S2 cells expressing secreted horseradish peroxidase
Reagents: long dsRNA against Drosophila genes
Time to read-out: about 5.5 days (5 days dsRNA, then 12 h reporter induction)
Conditions: reporter expression induced after 5 days of dsRNA, read 12 h later; inducer not stated
Read-out: 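Chemiluminescent measurement of peroxidase in the medium 12 h after reporter induction, following 5 days of dsRNA, given as a z-score per plate; higher means more secretion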
Reading the numbers: z-score: higher = more reporter secreted into medium

no.	Target gene	DRSC id	z-score, replicate 1	z-score, replicate 2	z-score, replicate 3	z-score, replicate 4	phenotype, replicate 1
1	CG34280	DRSC13229	0.31	-0.05			
2	VhaM9.7-d	DRSC15028	0.07	-0.22			
3	CG14125	DRSC10129	0.29	0.33			
4	RpL8	DRSC08532	-3.41	-4.01			reduced secretion
5	RpL8	DRSC08695	-5.05	-3.31			reduced secretion
6	CNBP	DRSC04116	0.35	0.07			
7	CNBP	DRSC04419	-0.8	0.14	0.35	-0.19	
8	CNBP	DRSC21317	1.24	1.71			
9	kis	DRSC00521	0.29	0.38			
10	kis	DRSC00625	0.04	0.05			
11	kis	DRSC00823	0.31	0.21			
12	kto	DRSC10983	0.45	0.47			
13	tkv	DRSC00860	-0.37	0.13			
14	tkv	DRSC03623	0.28	0.21			
15	tkv	DRSC22606	-0.24	-0.46			
16	esc	DRSC03529	0.21	0.32			
17	RpS25	DRSC16837	0.25	-0.62			
18	CG2006 + Spase12	DRSC14316	-0.55	-0.94			
19	CG9626	DRSC16525	0.38	0.12			
20	BicD	DRSC02006	0.01	0.17			
21	CG13670	DRSC10029	0.49	0.63			
22	alpha-Man-IIa	DRSC15393	0	0.21			
23	Indy	DRSC10393	0.31	0.19			
24	Eaat1	DRSC03321	0.7	0.33			
25	Or1a	DRSC18689	0.16	0.37			
26	CG8366	DRSC07153	0.43	0.31			
27	CG7573	DRSC10884	0.45	0.38			
28	CG14212	DRSC19568	0.29	0.3			
29	Ssu72	DRSC19572	0.12	0.29			
30	CG18284	DRSC02661	0.06	0.23			
31	CG18284	DRSC20756	0.23	-0.17			
32	PIG-Wb	DRSC08526	0.16	0.14			
33	AlkB	DRSC19115	0.15	-0.48			

2 of these entries, set out differently:
Target gene	DRSC id	z-score, replicate 1	z-score, replicate 2	z-score, replicate 3	z-score, replicate 4	phenotype, replicate 1
CG9626	DRSC16525	0.38	0.12			
BicD	DRSC02006	0.01	0.17			
